Test results: the supplement of paper PMC12819154, “High-throughput peptide-centric local stability assay extends protein–ligand identification to membrane proteins, tissues and bacteria” (Nature Structural & Molecular Biology, 2025)
The other results are listed elsewhere or left out. Most values lie at the level of the controls, where differences are scatter.

Protein sequences, listed by entry. Tags and fused reporters are not part of them. Lines headed by an entry give the natural chain unless they say otherwise; changes in a name come on top.
UniProt O35728: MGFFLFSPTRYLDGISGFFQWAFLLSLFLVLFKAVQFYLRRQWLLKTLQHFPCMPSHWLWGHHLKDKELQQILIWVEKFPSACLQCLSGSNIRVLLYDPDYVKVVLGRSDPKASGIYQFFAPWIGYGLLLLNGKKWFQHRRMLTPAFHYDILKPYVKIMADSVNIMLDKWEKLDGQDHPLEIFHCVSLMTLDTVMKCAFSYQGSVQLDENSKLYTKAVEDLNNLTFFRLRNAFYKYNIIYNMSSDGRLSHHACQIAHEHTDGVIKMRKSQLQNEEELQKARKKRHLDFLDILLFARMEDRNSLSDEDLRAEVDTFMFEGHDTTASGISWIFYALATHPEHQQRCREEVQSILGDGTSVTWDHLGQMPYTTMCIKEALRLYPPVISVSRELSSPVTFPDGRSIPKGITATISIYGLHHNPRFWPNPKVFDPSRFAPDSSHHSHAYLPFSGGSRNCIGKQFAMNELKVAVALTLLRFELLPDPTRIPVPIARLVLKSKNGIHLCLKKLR
UniProt O70131: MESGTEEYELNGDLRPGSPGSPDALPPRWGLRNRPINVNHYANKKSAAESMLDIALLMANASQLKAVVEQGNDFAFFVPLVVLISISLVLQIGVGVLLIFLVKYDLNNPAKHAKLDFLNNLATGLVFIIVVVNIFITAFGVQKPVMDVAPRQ
UniProt O88342: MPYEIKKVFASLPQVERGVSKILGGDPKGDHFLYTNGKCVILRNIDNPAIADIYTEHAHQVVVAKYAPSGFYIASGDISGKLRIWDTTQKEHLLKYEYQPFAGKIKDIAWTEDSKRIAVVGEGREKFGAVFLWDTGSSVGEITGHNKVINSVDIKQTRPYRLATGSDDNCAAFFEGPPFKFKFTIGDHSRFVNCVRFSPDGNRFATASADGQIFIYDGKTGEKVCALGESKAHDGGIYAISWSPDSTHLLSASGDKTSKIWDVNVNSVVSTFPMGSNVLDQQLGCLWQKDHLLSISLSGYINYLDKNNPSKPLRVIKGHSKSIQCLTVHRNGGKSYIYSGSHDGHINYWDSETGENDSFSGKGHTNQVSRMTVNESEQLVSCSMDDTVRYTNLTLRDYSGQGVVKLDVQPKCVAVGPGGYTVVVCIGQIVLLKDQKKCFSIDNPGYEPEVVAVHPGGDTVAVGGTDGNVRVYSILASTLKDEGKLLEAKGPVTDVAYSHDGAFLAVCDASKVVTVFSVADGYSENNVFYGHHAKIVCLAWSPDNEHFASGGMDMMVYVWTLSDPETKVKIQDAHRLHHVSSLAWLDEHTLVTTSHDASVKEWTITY
UniProt O35963: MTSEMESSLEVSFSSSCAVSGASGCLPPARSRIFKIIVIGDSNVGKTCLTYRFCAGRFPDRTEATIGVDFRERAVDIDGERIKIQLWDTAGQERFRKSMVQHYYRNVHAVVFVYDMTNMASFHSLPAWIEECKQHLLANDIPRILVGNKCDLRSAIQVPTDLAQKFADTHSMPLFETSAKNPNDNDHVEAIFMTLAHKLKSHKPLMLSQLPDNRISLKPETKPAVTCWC
UniProt O88271, whole entry: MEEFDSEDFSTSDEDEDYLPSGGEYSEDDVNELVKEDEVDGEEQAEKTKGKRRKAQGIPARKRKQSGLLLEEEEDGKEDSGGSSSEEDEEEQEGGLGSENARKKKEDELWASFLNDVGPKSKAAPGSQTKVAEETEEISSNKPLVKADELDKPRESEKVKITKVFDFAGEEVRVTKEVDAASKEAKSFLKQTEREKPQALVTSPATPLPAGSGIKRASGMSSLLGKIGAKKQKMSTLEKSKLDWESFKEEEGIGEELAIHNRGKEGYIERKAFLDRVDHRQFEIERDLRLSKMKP
UniProt O54916: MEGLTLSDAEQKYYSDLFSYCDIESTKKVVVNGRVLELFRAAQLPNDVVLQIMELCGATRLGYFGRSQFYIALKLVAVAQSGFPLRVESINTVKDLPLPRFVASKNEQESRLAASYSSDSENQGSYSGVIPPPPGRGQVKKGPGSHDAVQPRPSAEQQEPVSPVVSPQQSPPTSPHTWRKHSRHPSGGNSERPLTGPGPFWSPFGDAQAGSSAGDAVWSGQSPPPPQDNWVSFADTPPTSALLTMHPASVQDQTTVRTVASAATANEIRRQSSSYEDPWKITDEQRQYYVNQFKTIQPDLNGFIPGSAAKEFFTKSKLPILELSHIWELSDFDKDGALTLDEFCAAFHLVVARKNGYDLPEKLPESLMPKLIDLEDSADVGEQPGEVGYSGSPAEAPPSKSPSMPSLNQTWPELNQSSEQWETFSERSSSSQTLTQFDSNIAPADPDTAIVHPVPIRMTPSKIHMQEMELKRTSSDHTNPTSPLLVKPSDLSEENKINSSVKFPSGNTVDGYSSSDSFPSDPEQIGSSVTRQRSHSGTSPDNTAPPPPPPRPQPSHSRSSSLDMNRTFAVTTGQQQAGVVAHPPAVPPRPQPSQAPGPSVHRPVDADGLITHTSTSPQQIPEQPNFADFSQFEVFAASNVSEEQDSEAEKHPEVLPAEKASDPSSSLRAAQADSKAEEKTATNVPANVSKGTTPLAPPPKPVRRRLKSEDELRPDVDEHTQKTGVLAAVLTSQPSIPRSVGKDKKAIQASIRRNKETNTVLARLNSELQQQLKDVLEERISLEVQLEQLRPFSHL
UniProt O70583: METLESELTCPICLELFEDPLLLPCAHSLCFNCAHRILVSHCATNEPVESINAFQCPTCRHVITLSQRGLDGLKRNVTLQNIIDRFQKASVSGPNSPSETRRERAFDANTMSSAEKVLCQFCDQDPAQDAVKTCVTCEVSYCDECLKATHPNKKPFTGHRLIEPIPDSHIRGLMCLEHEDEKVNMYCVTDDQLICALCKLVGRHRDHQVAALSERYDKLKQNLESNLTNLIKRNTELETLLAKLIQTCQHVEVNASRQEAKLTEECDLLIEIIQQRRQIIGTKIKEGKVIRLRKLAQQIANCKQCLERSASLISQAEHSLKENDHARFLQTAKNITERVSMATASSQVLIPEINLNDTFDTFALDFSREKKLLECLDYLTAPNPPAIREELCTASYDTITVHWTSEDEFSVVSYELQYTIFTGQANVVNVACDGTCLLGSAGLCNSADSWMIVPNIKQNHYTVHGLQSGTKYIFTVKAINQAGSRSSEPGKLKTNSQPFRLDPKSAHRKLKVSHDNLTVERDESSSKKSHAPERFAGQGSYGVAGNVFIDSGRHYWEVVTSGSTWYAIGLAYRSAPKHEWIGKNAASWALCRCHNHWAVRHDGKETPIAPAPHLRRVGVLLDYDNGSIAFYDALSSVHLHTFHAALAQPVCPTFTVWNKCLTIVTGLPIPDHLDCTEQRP
UniProt O55102: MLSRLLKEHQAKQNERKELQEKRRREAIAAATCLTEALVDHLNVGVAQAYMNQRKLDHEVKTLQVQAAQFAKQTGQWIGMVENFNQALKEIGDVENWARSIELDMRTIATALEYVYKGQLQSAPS
UniProt O35609: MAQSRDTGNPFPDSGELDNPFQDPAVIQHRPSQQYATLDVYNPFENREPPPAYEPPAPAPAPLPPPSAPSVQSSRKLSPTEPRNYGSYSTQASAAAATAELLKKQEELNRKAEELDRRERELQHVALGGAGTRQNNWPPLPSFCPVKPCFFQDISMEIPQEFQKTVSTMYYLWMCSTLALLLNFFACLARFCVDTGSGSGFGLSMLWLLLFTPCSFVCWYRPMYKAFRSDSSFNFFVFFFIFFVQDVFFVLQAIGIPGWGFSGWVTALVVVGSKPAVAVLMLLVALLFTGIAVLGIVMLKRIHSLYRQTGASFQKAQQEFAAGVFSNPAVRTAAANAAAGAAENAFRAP
UniProt O88456: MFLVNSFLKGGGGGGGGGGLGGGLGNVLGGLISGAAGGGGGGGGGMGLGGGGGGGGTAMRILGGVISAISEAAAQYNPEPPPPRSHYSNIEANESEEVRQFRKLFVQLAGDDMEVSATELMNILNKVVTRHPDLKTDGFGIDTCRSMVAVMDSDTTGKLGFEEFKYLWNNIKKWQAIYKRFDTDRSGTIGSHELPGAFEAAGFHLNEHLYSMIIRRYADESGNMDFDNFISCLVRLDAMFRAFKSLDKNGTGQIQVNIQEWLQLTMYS
UniProt O88574: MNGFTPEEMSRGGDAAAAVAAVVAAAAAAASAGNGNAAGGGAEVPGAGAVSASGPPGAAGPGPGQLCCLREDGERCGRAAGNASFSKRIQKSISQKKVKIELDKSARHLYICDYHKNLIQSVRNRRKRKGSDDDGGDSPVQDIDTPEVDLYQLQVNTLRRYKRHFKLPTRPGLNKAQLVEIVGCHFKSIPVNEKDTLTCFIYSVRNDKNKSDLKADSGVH
UniProt O70456: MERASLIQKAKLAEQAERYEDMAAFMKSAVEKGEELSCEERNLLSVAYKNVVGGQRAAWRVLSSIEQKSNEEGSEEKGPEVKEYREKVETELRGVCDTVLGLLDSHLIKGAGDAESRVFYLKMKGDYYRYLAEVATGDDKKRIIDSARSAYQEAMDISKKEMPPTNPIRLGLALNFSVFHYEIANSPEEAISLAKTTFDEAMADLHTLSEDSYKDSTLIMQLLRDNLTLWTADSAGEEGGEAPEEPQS
UniProt O88792: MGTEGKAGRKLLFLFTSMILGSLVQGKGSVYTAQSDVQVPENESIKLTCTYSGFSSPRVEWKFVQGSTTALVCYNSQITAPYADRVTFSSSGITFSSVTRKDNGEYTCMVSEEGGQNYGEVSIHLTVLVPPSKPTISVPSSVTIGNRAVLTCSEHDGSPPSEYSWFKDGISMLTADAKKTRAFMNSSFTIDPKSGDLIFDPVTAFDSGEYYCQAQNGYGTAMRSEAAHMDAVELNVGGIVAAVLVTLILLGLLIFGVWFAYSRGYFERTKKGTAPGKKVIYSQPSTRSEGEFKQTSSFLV
UniProt O88845: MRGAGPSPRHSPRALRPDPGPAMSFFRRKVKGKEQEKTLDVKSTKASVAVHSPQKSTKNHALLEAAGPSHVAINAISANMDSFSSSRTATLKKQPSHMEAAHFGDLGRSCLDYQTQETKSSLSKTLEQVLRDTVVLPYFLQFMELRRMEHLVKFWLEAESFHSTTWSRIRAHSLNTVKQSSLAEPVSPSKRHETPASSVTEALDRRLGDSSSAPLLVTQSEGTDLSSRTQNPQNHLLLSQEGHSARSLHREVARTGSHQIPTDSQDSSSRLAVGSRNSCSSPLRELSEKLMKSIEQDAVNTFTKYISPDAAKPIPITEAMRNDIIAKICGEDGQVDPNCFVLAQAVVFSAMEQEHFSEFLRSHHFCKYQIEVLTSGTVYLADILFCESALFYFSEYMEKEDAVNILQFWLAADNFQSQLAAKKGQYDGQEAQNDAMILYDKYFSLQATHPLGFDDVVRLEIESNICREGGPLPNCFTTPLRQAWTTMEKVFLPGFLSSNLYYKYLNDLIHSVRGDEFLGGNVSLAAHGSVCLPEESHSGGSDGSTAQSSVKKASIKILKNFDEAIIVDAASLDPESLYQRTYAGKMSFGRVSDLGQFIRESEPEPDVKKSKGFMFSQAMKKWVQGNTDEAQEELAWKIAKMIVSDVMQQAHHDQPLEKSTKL
UniProt O88425: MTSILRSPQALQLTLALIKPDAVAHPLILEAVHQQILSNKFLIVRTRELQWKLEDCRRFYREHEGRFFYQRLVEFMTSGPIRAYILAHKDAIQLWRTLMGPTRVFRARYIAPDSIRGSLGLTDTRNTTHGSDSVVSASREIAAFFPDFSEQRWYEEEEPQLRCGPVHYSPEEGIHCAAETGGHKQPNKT
UniProt O54941, whole entry: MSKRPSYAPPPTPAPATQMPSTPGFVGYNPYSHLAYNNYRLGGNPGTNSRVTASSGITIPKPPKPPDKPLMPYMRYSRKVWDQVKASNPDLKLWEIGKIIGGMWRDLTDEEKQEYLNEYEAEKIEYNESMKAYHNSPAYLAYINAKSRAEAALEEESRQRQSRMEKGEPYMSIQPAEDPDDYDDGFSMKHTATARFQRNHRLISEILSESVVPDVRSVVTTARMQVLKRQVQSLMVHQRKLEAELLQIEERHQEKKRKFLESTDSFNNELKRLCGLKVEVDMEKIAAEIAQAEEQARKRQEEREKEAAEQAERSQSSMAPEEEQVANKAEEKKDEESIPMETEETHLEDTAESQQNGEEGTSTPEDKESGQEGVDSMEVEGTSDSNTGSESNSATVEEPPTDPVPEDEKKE
UniProt O35618: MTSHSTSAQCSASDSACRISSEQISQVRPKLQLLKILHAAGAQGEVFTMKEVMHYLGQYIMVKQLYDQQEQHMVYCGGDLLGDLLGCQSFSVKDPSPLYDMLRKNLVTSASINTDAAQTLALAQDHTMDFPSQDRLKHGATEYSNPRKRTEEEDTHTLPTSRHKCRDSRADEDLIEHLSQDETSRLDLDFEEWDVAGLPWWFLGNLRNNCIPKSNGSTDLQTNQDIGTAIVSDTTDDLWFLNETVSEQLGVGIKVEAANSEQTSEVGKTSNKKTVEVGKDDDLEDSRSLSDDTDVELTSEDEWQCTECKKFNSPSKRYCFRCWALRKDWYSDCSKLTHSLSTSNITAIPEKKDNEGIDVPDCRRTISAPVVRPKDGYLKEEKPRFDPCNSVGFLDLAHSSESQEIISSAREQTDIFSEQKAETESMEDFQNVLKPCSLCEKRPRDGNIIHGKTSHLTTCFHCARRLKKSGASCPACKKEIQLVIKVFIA

Compound: CN[C@@H]1C[C@H]2O[C@@](C)([C@@H]1OC)n1c3ccccc3c3c4c(c5c6ccccc6n2c5c31)C(=O)NC4 [staurosporine]
Experiment: log2 fold change of tryptic peptide abundance, ligand vs vehicle (limited proteolysis) (log2 ratio); higher = more trypsin-susceptible (destabilized)
Settings: ligand concentration: 20 uM; sample: mouse liver crude lysate; replicate design: treated separately

Row | Target | log2 fold change
1 | UniProt O70228 (peptide sequence: GEAHLELNAFRR, peptide start residue: 798) | 0.223
2 | UniProt O35728 (peptide sequence: FAPDSSHHSHAYLPFSGGSR, peptide start residue: 433) | 0.418
3 | UniProt O35626 (peptide sequence: LKQQILDTK, peptide start residue: 117) | 0.194
4 | UniProt O55134 (peptide sequence: AHENETDEVRPSHK, peptide start residue: 783) | -0.328
5 | UniProt O70131 (peptide sequence: NRPINVNHYANKK, peptide start residue: 33) | -0.278
6 | UniProt O35930 (peptide sequence: SSLFLWVRPNGR, peptide start residue: 689) | -0.0819
7 | UniProt O88342 (peptide sequence: IKDIAWTEDSKR, peptide start residue: 105) | -0.556
8 | UniProt O35963 (peptide sequence: AVDIDGER, peptide start residue: 74) | -0.139
9 | UniProt O54734 (peptide sequence: VGPVSHHR, peptide start residue: 293) | -0.4
10 | UniProt O55055 (peptide sequence: IGLQGDMTDPR, peptide start residue: 85) | -0.221
11 | UniProt O88271 (peptide sequence: EKPQALVTSPATPLPAGSGIKR, peptide start residue: 195) | -0.517
12 | UniProt O88668 (peptide sequence: LPPLPPREDGPR, peptide start residue: 46) | -0.263
13 | UniProt O35601 (peptide sequence: SKFMPAAQDTDSKPR, peptide start residue: 176) | 0.261
14 | UniProt O54916 (peptide sequence: TATNVPANVSK, peptide start residue: 680) | 0.0928
15 | UniProt O70583 (peptide sequence: VSHDNLTVERDESSSK, peptide start residue: 512) | 0.374
16 | UniProt O55102 (peptide sequence: TLQVQAAQFAK, peptide start residue: 62) | 0.262

Row | Target | log2 fold change
17 | UniProt O35609 (peptide sequence: ERELQHVALGGAGTR, peptide start residue: 119) | 0.208
18 | UniProt O88448 (peptide sequence: TLGKDHPAVAATLNNLAVLYGK, peptide start residue: 272) | 0.252
19 | UniProt O88735 (peptide sequence: GGDGATHSDPASDGYK, peptide start residue: 13) | 0.173
20 | UniProt O54828 (peptide sequence: KVANFFQIK, peptide start residue: 623) | 0.184
21 | UniProt O55240 (peptide sequence: VVNITSVLGR, peptide start residue: 158) | 0.158
22 | UniProt O88456 (peptide sequence: TDGFGIDTCR, peptide start residue: 136) | -0.173
23 | UniProt O35738 (peptide sequence: AVQEVHPSPVSR, peptide start residue: 266) | 0.151
24 | UniProt O88574 (peptide sequence: HLYICDYHK, peptide start residue: 108) | 0.378
25 | UniProt O70362 (peptide sequence: LYSTYSTK, peptide start residue: 224) | -0.217
26 | UniProt O70456 (peptide sequence: SAVEKGEELSCEER, peptide start residue: 28) | -0.328
27 | UniProt O88792 (peptide sequence: VIYSQPSTR, peptide start residue: 279) | -0.0993
28 | UniProt O88845 (peptide sequence: SKGFMFSQAMK, peptide start residue: 610) | -0.447
29 | UniProt O88425 (peptide sequence: YIAPDSIR, peptide start residue: 109) | -0.193
30 | UniProt O54941 (peptide sequence: IAAEIAQAEEQARK, peptide start residue: 285) | -0.496
31 | UniProt O35618 (peptide sequence: KDWYSDCSK, peptide start residue: 327) | 0.486

Quoted from above, nos. 19–20
Row | Target | log2 fold change
19 | UniProt O88735 (peptide sequence: GGDGATHSDPASDGYK, peptide start residue: 13) | 0.173
20 | UniProt O54828 (peptide sequence: KVANFFQIK, peptide start residue: 623) | 0.184
